Taken from: PubChem BioAssay AID1671195 (Yale University, 2021)

- Screen: 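Genes whose knockdown alters LDL uptake in liver cancer cells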 (primary screen)
- System: human Huh7 hepatoma cells
- Knock-down reagent: siRNA pool against human genes, 18 nM
- Time to read-out: about 2 to 2.5 days of knockdown, then 8 h LDL uptake
- Challenge: DiI-labelled LDL at 30 µg/ml for 8 h, in lipoprotein-deficient serum medium
- Detection: 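Per-cell DiI-LDL intensity by automated imaging; well means scaled to the plate median and given as a robust z-score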
- Scale: robust z-score: higher = more LDL uptake after knockdown
- Active means: 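Active when two or more replicates show a robust z-score above 2 or below -2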
In all, the deposit lists about 22,000 reagents; below is a random part of them. Of all reagents, about 1,510 (6.9%) are marked active. 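Active includes knockdowns raising or lowering LDL uptake; positive z-scores mean more uptake, negative mean less.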 Unmarked entries are inactive. The numbers tell different reagents against one gene apart.

no.	target	pool no.	robust z-score, replicate 1	robust z-score, replicate 2	robust z-score, replicate 3
1	ADH7	1	3.32 (active)	2.76	2.85
2	INSR	1	-0.848	-1.15	-0.423
3	ZRANB3	1	0.789	0.83	0.978
4	OTUD1	1	0.516	0.436	1.06
5	MED11	1	-0.385	-0.188	-0.207
6	SNAP25	1	0.424	1.04	0.996
7	SLC17A2	1	-0.331	0.322	-0.0581
8	HRC	1	0.637	0.595	0.0662
9	LTN1	1	-0.664	-0.407	0.561
10	PLA2G2A	1	0.0791	0.349	0.274
11	OSCP1	1	2.72 (active)	2.24	2.05
12	KLHL3	1	0.195	-1.22	-0.743
13	RECQL4	1	0.116	0.972	-0.0137
14	NPAS1	1	0.0423	1.85	1.57
15	PLPP7	1	1.43	1.45	1.48
16	KMT2A	1	-0.535	0.235	-0.395
17	KMT2A	2	-0.52	-1.25	-0.574
18	TRIM65	1	-0.643	0.0467	0.349
19	ZNF585B	1	-0.0723	0.218	-0.00106
20	PIWIL3	1	0.0776	-0.0894	0.268
21	SOCS4	1	-0.361	-0.59	-0.712
22	PPP1R42	1	0.565	0.501	0.755
23	CD58	1	-1.23	-0.65	-1.15
24	JARID2	1	-1.69	-1.46	-1.49
25	GLB1L	1	1.31	0.527	0.494
26	PI16	1	-1.6	-1.77	-1.55
27	TMEM191A	1	3.05 (active)	3.9	3.14
28	USH2A	1	-1.2	-0.7	-0.749
